In the supplement of paper PMC10849652:
The other results are listed elsewhere or left out.

The chains behind the UniProt entries cited, without tags or fusion partners. Where a name states a change or a piece, a line headed by the entry shows the natural chain unless it says otherwise.
UniProt Q63HM1: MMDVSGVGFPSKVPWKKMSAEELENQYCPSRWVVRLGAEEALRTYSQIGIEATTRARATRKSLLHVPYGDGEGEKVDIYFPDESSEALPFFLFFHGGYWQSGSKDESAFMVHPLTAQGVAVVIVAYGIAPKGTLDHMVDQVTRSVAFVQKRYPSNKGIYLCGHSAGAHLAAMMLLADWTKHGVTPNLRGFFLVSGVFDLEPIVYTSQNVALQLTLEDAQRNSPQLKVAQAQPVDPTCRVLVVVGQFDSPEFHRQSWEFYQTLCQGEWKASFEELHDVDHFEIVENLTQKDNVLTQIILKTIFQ
UniProt Q9Y4X0: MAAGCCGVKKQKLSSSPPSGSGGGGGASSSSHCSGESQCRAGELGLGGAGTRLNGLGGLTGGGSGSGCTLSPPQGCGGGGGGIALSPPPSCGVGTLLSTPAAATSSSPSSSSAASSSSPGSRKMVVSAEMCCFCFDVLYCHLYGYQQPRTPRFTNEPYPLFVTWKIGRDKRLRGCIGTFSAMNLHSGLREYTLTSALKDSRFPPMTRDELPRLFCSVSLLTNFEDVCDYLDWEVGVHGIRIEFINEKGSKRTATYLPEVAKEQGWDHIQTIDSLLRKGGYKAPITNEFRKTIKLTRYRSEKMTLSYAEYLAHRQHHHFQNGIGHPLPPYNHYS
UniProt Q9UPW5: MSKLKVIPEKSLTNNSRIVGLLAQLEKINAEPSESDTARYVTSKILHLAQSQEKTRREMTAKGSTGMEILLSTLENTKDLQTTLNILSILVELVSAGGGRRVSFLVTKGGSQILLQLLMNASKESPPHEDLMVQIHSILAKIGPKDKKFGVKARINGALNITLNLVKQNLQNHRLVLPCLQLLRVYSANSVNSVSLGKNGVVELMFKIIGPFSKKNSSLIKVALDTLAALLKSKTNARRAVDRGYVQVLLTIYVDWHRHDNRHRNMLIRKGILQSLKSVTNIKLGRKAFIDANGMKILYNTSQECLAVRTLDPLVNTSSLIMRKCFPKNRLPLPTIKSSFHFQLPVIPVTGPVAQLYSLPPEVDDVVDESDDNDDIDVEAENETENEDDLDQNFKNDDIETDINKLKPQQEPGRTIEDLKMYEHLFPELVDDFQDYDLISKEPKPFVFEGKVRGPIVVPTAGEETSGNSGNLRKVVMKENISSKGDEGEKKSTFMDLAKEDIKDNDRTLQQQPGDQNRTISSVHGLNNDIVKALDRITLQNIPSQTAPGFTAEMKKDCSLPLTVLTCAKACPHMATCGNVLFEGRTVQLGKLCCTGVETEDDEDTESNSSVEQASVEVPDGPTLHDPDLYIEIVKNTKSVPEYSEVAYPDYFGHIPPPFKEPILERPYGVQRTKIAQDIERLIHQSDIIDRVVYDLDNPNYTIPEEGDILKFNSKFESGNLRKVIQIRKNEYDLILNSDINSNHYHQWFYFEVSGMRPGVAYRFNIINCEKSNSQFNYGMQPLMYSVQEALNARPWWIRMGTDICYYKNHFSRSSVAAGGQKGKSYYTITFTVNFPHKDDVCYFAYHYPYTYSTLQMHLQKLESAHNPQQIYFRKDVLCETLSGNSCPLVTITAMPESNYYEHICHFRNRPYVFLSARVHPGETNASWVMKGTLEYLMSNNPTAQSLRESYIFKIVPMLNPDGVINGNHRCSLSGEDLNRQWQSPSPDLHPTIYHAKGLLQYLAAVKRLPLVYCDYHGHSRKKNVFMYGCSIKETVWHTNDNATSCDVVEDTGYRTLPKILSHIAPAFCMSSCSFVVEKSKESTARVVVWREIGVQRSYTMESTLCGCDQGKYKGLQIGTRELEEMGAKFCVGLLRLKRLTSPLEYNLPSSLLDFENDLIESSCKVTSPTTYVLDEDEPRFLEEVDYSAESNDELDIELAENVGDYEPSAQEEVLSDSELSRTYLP
UniProt P51857: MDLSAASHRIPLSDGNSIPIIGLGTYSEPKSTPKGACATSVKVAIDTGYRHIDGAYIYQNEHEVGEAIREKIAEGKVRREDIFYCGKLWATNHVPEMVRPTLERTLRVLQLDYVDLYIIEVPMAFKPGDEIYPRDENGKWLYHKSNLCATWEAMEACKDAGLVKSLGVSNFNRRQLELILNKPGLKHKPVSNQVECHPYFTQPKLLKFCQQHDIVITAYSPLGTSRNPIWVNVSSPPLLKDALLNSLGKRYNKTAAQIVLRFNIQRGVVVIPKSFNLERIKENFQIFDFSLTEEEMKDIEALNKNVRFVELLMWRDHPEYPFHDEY
UniProt Q9NP73: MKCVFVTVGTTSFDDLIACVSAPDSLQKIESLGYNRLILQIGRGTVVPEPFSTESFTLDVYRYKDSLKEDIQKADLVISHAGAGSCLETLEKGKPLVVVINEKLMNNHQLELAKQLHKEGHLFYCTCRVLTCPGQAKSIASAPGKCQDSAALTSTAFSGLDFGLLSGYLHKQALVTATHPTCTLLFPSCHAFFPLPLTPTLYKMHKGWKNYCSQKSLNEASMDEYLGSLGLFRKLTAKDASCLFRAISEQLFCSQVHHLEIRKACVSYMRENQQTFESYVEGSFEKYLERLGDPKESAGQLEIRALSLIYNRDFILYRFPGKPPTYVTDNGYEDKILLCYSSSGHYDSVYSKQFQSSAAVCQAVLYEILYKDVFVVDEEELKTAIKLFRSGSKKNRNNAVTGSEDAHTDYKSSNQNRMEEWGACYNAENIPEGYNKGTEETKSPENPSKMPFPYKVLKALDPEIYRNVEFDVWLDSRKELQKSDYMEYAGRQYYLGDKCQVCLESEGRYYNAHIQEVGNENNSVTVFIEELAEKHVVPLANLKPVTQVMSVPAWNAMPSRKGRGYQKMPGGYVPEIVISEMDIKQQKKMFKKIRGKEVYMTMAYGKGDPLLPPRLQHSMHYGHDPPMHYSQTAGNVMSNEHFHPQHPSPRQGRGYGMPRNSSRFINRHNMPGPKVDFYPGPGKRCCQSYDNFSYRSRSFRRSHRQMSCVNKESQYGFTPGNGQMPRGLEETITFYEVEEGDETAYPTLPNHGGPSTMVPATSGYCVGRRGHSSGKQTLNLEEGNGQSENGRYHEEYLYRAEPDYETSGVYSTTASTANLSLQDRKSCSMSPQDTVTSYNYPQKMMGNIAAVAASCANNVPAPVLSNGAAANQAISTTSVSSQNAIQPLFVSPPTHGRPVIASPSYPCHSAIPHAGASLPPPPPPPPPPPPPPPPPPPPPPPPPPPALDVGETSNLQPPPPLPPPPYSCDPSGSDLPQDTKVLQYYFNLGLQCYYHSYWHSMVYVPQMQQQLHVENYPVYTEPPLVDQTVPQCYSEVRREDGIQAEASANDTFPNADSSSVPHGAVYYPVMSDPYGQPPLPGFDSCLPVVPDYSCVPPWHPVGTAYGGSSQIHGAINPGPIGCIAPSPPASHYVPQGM
UniProt Q9UPQ3: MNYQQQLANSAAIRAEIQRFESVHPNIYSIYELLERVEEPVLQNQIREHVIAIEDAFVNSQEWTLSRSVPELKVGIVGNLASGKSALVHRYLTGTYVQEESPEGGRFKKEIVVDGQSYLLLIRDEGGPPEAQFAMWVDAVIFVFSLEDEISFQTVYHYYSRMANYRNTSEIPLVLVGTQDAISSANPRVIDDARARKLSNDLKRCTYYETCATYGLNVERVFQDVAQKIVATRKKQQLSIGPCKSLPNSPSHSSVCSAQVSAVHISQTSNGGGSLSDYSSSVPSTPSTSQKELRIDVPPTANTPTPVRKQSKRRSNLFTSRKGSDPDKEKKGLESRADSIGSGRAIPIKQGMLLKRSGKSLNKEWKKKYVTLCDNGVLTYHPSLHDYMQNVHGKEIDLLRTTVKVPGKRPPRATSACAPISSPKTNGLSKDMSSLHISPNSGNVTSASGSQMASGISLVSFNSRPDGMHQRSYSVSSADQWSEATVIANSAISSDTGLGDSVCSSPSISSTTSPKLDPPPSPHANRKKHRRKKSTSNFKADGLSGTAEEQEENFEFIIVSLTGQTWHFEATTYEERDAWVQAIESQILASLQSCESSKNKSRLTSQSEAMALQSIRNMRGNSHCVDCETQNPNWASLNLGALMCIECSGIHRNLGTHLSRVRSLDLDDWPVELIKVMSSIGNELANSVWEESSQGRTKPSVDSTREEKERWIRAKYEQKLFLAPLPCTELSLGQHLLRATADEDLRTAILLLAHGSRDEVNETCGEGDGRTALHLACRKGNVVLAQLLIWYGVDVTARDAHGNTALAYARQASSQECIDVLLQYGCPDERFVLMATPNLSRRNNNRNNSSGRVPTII
UniProt P55008: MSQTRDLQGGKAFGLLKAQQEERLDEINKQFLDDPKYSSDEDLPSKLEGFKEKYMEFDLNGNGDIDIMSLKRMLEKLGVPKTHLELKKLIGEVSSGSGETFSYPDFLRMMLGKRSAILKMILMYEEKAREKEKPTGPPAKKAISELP
UniProt Q86V24: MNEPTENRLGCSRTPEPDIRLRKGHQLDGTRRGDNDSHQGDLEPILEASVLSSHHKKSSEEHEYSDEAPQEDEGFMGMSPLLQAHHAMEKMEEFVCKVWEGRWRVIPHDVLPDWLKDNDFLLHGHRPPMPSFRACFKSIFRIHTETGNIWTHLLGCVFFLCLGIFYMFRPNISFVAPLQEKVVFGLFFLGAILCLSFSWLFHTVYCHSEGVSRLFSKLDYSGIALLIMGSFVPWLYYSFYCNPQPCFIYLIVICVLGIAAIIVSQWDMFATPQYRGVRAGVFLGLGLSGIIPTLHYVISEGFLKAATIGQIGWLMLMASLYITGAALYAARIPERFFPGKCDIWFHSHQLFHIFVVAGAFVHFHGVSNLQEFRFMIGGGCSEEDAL
UniProt Q6QNK2: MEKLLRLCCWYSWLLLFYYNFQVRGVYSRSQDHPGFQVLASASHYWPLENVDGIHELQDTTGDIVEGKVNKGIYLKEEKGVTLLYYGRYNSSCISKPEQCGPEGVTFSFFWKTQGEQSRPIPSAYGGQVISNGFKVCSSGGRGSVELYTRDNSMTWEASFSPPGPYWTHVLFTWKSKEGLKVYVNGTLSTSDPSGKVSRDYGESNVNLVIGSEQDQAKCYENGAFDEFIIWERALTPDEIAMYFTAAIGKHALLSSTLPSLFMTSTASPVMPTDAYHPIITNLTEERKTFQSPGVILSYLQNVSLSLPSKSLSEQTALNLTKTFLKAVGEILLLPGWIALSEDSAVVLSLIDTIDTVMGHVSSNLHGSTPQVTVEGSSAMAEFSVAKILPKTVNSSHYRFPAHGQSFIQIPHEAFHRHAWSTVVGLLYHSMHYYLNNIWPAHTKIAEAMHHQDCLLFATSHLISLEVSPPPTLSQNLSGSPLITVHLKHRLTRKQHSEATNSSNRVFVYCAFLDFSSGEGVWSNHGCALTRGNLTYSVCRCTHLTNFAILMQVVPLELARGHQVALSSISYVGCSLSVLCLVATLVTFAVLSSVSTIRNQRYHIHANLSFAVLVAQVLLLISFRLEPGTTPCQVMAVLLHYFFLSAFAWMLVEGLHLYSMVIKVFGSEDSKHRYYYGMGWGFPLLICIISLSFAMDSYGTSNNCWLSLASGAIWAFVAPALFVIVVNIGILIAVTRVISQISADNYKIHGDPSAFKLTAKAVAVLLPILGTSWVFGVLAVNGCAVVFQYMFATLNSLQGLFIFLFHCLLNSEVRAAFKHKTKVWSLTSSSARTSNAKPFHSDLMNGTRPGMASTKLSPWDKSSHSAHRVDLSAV
UniProt P51648: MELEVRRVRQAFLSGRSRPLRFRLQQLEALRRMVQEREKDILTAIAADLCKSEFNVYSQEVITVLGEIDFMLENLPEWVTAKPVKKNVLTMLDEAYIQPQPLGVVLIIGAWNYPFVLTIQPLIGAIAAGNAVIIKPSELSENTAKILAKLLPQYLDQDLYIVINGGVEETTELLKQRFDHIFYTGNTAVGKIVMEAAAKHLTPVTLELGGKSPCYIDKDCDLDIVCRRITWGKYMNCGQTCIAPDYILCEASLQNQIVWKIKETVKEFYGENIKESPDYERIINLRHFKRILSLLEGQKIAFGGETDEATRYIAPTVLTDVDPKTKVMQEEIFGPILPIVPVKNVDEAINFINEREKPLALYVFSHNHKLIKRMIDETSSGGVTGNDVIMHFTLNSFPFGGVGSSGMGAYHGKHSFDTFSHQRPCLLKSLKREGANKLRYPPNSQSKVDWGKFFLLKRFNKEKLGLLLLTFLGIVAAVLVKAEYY
UniProt P54922: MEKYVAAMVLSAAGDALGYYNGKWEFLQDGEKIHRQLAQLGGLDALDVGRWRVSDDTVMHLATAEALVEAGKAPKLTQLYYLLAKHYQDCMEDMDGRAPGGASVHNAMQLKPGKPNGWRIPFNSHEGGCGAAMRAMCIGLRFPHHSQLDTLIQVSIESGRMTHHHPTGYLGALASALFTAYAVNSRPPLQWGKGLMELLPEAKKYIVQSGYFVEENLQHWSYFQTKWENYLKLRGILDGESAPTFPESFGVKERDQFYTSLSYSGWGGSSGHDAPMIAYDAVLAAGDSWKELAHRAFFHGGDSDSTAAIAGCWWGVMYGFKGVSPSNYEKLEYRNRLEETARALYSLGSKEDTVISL

compound: COC(=O)[C@H](CCSC)NC(=O)C1=C(C=C(C=C1)NC[C@H](CS)N)C2=CC=CC=C2; test: log2 fold change, soluble protein after heating vs DMSO (PISA); higher = thermal stabilisation; K562 cells, 10 uM, 30 min; active = over 0.2 and 3.5 SD of the protein, either way, in both replicates (recomputed)
Method in brief: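 K562 cells (2×10^6 cells/mL) were treated with 10 μM compound for 30 min, and aliquots were heated for 3 min over 48°C-58°C. Pooled aliquots were extracted in PBS with 0.5% NP-40 at 4°C, and the supernatant after 21,000xg for 90 min was measured by TMTpro 16plex LC-MS/MS with channel sums equalised. Reported thermal stability, relative to control samples and from duplicates, is a log2 fold change.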

log2 fold change, inactive:
AFMID isoform 2 (UniProt Q63HM1) -0.025
AMMECR1 (UniProt Q9Y4X0) -0.048
AGTPBP1 isoform 3 (UniProt Q9UPW5) -0.024
AMBRA1 isoform 5 (UniProt Q9C0C7) -0.079
AKR1D1 (UniProt P51857) -0.14
ALG13 isoform 2 (UniProt Q9NP73) -0.027
AGAP1 (UniProt Q9UPQ3) -0.175
ALKBH1 (UniProt Q13686) 0.096
AIF1 (UniProt P55008) -0.046
ADIPOR2 (UniProt Q86V24) -0.035
ADGRD1 isoform 4 (UniProt Q6QNK2) 0.053
ADCY3 (UniProt O60266) 0.13
ALDH3A2 isoform 2 (UniProt P51648) 0.074
ADPRH (UniProt P54922) 0.028

Random excerpt: 2 records from the list.
log2 fold change, inactive:
AMBRA1 isoform 5 (UniProt Q9C0C7) -0.079
ADCY3 (UniProt O60266) 0.13
